One substance from publication PMC11705641 can be followed below.

Sequences of proteins named here, by UniProt entry; tags and fusion partners are left off. A change or cut given only in a name is not applied to a line headed by its entry. A line that says so, or that is headed by a name, gives the form on record, which may keep a tag or linker. Residues count along the entry.
UniProt Q96AY3, residues 27-582: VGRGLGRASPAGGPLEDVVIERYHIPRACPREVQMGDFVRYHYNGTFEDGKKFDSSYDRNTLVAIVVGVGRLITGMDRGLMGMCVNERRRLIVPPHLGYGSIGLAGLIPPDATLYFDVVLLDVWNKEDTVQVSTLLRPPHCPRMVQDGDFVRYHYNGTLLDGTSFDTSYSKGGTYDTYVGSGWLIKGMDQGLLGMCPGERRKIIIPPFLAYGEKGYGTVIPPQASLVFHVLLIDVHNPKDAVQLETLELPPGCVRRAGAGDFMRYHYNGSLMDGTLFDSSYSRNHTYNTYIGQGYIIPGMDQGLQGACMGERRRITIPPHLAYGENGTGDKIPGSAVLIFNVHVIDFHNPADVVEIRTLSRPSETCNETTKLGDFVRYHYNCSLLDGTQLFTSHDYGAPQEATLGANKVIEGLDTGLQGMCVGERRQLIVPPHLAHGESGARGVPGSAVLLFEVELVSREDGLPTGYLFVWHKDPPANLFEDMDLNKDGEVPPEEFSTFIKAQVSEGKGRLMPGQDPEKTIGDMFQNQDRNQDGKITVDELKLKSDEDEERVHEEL
lamin C (P02545-2, form named): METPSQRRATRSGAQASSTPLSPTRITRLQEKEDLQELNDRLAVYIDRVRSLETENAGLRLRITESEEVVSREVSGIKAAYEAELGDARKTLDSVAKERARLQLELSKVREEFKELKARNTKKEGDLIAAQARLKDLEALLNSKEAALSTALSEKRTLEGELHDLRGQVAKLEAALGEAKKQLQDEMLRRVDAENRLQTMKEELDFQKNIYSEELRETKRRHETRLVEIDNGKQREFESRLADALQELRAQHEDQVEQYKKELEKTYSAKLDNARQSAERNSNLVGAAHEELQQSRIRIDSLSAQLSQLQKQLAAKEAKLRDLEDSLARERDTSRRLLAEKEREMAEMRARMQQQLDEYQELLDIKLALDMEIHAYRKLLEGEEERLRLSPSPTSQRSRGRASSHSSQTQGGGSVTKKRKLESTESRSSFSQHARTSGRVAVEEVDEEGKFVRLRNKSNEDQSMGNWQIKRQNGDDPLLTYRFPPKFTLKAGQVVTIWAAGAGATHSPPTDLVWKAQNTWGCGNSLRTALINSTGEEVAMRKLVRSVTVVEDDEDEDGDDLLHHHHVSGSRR

Results are given in words; binding and its absence hold for the method and conditions named. In cells and extracts the contact can be indirect.

This test has as its target FK506 binding protein 10 (FKBP10), endogenous (human (endogenous in T24 and UMUC3)) (UniProt Q96AY3). The experiment in a line: co-IP; endogenous proteins; IP with anti-FKBP10 antibody from NP-40 cell lysate, western blot. A general note: In western blotting, separated proteins are transferred to a membrane and probed.

On to lamin C (from UniProt P02545-2 1-572), for which the binding entry is given as “no binding”.
